# From PubChem BioAssay AID504444 (National Center for Advancing Translational Sciences (NCATS), 2011)
# In all, about 360,000 compounds went through this assay and about 7,500 (2.1%) were called active. The shares of active, inactive and inconclusive entries below differ from those in the screen. Calls come from the whole dose curve; as a rule, active = well fitted inhibition curve with a large enough effect; inconclusive = small, poorly fitted or top-dose-only effect, or effect the other way; inactive = flat fitted curve, though single readings scatter. Potencies beside an inconclusive call are fits to weak or partial responses and may not hold up.
# Test: Nrf2 qHTS screen for inhibitors; note: nearly all actives have a fitted effect of over 60% in size
# Settings: A549 ARE-Fluc reporter, luciferase luminescence, 18-24 h; activity change, negative = inhibition: at 46 µM (top of the series)
# Procedure, shortened: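 A549 ARE_Fluc cells, 5000/well, 5% FBS OPTI-MEM; compounds in dose-response, 18-24 h at 37 °C/5% CO2; CellTiter-Fluor viability read (Ex 405/Em 525), then BugLite luciferase luminescence = Nrf2 activity.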
# % is set by controls: 0 for no effect and ±100 for the full control effect; potency is the fitted concentration of half-maximal effect.
Structure (SMILES),"activity change, negative = inhibition",Potency
COC(=O)c1ccc(NCc2cc(O)ccc2O)cc1O,inactive: 5.35%,
COc1ccc2[nH]c(=O)c(CN(c3ccc(C)c(C)c3)S(C)(=O)=O)cc2c1,,"inconclusive: 29.1 µM [activator, single point]"
O=C(/C=C/c1ccc(Br)cc1)Nc1ccc(S(=O)(=O)Nc2ncccn2)cc1,,"inconclusive: 16.4 µM [falling, single point]"
CCOC(=O)N1CCN(S(=O)(=O)c2ccc(F)c(C(=O)Nc3cccc(Cl)c3C)c2)CC1,,"inconclusive: 23.1 µM [falling, partial curve, poor fit]"
Fc1ccc(-c2nc3c(-c4ccc(Cl)cc4)cnn3cc2CCN2CCOCC2)cc1,,"inconclusive: 20.6 µM [falling, single point]"
CC(C(=O)N1CCOCCOCCOCCOCCOCC1)N1C(=O)c2ccccc2C1=O (stereo not drawn),,"inconclusive: 0.206 µM [falling, partial curve, poor fit]"
O=C(/C=C/c1ccco1)Nc1nnc(-c2ccco2)s1,,"inconclusive: 2.59 µM [activator, full curve]"
CCOc1ccc(CCNC(=O)CCNS(=O)(=O)c2ccc3c(c2)CCN3C(C)=O)cc1OCC,,"inconclusive: 16.4 µM [falling, single point]"
Cc1cc(-n2c(C)cc(C(=O)CN3C(=O)C(=O)N(C)C3=O)c2C)no1,inactive: 10.4%,
Cc1ccc(-n2nc3c(N4CCC(C(=O)N5CCC(C)CC5)CC4)nnc(C)c3c2C)cc1,,"inconclusive: 18.4 µM [activator, single point]"
O=C1NC[C@@H](c2ccccc2)OC(=O)[C@@H](Cc2ccc(F)cc2)CC/C=C/C[C@H]1CC(=O)N(CCO)Cc1ccccc1,,"inconclusive: 29.1 µM [falling, single point]"
O=C(NC1CC1)c1ccc(CN(c2ccccc2)S(=O)(=O)c2ccccc2)cc1,,"inconclusive: 6.51 µM [falling, partial curve, poor fit]"
CCCNC(=O)C1CN(C(=O)c2nn(Cc3ccccc3)c(=O)c3ccccc23)c2ccccc2O1 (stereo not drawn),,"inconclusive: 11.6 µM [falling, partial curve]"
CCOc1ccc(/C(O)=C2/C(=O)C(=O)N(CCCN3CCOCC3)C2c2ccc(C)cc2)cc1C (stereo not drawn),,"inconclusive: 0.146 µM [falling, full curve, poor fit]"
COc1ccc(C(=O)c2ccc(N3CCOCC3)c([N+](=O)[O-])c2)cc1,,"inconclusive: 29.1 µM [falling, single point]"
CCN(CC)S(=O)(=O)c1cccc(C(=O)NC2CCCCC2)c1,,"inconclusive: 29.1 µM [falling, single point]"
Cc1cccc2c1cnn2C(=O)Nc1cc(F)ccc1F,,"inconclusive: 11.6 µM [activator, partial curve]"
Cc1ccc(N(C(=O)Cn2nnc(-c3ccc(F)cc3)n2)C(C(=O)NC(C)(C)C)c2ccncc2)cc1 (stereo not drawn),,"inconclusive: 29.1 µM [falling, single point]"
COc1ccc(Cn2cc(C(=O)c3ccc(Cl)cc3)c(=O)c3cc4c(cc32)OCO4)cc1,,"inconclusive: 14.6 µM [falling, partial curve, poor fit]"
Cc1cccc(NCc2nc3ccccc3n2Cc2ccccc2)c1,,"inconclusive: 29.1 µM [falling, single point]"
COc1cc(OC)cc(C(=O)N[C@H](C(=O)NCc2ccccc2)C(C)C)c1,,"inconclusive: 29.1 µM [falling, single point]"

Structure (SMILES),"activity change, negative = inhibition",Potency
Cc1cccc(C(=O)NCC(=O)N2CCCCCCC2)c1,,"inconclusive: 16.4 µM [activator, partial curve, poor fit]"
O=C(/C=C/c1ccccc1Cl)c1cccnc1,inactive: -12.8%,
c1ccc(Cn2nnc3c(N4CCc5ccccc5C4)ncnc32)cc1,,"inconclusive: 23.1 µM [falling, partial curve, poor fit]"
Cc1cccc(-c2ccc(C=Nc3c(C)n(C)n(-c4ccccc4)c3=O)o2)c1,,"inconclusive: 29.1 µM [activator, partial curve, poor fit]"
CCCCCCC(=O)N(O)C1CC(=O)N(c2ccc(Cl)cc2)C1=O (stereo not drawn),inactive: 1.28%,
Cc1ccc(Cl)cc1NC(=O)C[n+]1ccc(Cc2ccc([N+](=O)[O-])cc2)cc1,,"inconclusive: 7.31 µM [falling, partial curve]"
Cc1cccc(CSc2nc3cccnc3n2Cc2ccc(C(=O)NCc3cccs3)cc2)c1,,"inconclusive: 29.1 µM [falling, single point]"
Cc1ccc2nc(SC(C)C(=O)N3CCCC3)[nH]c2c1 (stereo not drawn),,"inconclusive: 12.6 µM [activator, single point]"
C[C@@H](Nc1nc(Cl)nc2nc[nH]c12)c1ccccc1,,"inconclusive: 20.6 µM [falling, single point]"
CCOC(=O)Cc1csc(NC(=S)NC(=O)c2ccc(C)cc2)n1,,active: 2.06 µM
O=C(NCCc1csc(-c2cccnc2)n1)c1ccc(Cl)cc1,,"inconclusive: 18.4 µM [falling, partial curve, poor fit]"
O=C(O)c1[nH]c2ccccc2c1C(c1cc(Br)ccc1O)c1c(C(=O)O)[nH]c2ccccc12,inactive: -4.5%,
Cc1ccc(C)c(S(=O)(=O)NCCC(=O)N2CCCC(C(N)=O)C2)c1 (stereo not drawn),inactive: -12.2%,
Cc1cc(C)n(-c2nc3cc(Cl)c(Cl)cc3nc2Nc2ccc(F)cc2C)n1,inactive: 5.6%,
O=C(Nc1ccccn1)c1cc2ccccc2o1,,"inconclusive: 20.6 µM [falling, single point]"
CC1(C(=O)CSc2nc3ccccc3s2)CCC(=O)O1 (stereo not drawn),,"inconclusive: 20.6 µM [activator, partial curve]"
CCOC(=O)c1c(C)[nH]c(C2=NNC(=NC(C)COC)SC2)c1C (stereo not drawn),,"inconclusive: 29.1 µM [activator, single point]"
COC(=O)c1ccc2nc(NC(=O)CN3C(=O)CCC3=O)sc2c1,,"inconclusive: 32.6 µM [activator, single point]"
CC(C)Cn1c(=O)c2sccc2n2c(CCCC(=O)NCC(C)c3ccccc3)nnc12 (stereo not drawn),inactive: -1.99%,
CC(C)c1nnc(NC(=O)c2nc(S(=O)(=O)Cc3ccc(F)cc3)ncc2Cl)s1,inactive: 17.1%,
Cc1c(C(=O)NC2CCCCC2)oc2ccccc12,,"inconclusive: 20.6 µM [activator, single point]"

Structure (SMILES),"activity change, negative = inhibition",Potency
CCCCCCCCCCn1c2c(c(=N)c3c1CCC3)CCC2,,"inconclusive: 25.9 µM [falling, single point]"
O=C(CSc1oc(-c2ccccc2)nc1S(=O)(=O)c1ccc(Br)cc1)NC1CCCCC1,,"inconclusive: 6.51 µM [falling, single point]"
CC(C)(C)NC(=O)CN(C(=O)C1(C)CC(=O)N=C2C=CC=CN21)C1CCCC1 (stereo not drawn),inactive: -16.7%,
CCOc1nc(NC(=O)NS(=O)(=O)Oc2cccc(F)c2)nc(-c2ccccc2)n1,inactive: 21.2%,
CC(=O)Nc1nonc1-c1nnc(SCc2ccccc2C)n1C,inactive: 15.3%,
CSc1nnc(N2C(=O)C(O)=C(C(=O)c3ccco3)C2c2ccccc2F)s1 (stereo not drawn),inactive: 15%,
O=C(COc1cccc2c1CCNC2=O)Nc1cccc(F)c1,,"inconclusive: 1.64 µM [falling, partial curve, poor fit]"
CC(=O)c1c(C)[nH]c(C(=O)Nc2ccc(Cl)c(S(=O)(=O)N3CCOCC3)c2)c1C,,"inconclusive: 10.3 µM [falling, partial curve, poor fit]"
Cc1ccc(NS(=O)(=O)c2ccc3[nH]c4c(c3c2)CCCC4)c(C)c1,,"inconclusive: 16.4 µM [falling, single point]"
Cc1ccc2nc(-c3ccccc3)c(CN3CCN(c4ccccc4F)CC3)n2c1,,"inconclusive: 25.9 µM [falling, partial curve, poor fit]"
CCOCCn1c(COc2ccc(C)cc2)nc2ccccc21,,"inconclusive: 3.26 µM [activator, partial curve]"
CN(/N=C/c1ccc2c(c1)OCO2)c1ccccc1,,"inconclusive: 18.4 µM [activator, single point]"
CCC(=O)N1CCc2cc(S(=O)(=O)NCCC(=O)N3CCN(Cc4ccccc4)CC3)ccc21,,"inconclusive: 29.1 µM [falling, single point]"
Cc1ccc(NC(=O)c2ccccc2F)c(NC(=O)c2ccccc2F)c1,,"inconclusive: 25.9 µM [activator, partial curve]"
CN(CCc1ccccc1)C(=O)c1cccc(NC(=O)Cc2cccc([N+](=O)[O-])c2)c1,,"inconclusive: 16.4 µM [falling, partial curve, poor fit]"
CCOc1ccccc1N1CC(c2nc3ccccc3n2CCOc2ccc(OC)cc2)CC1=O (stereo not drawn),,"inconclusive: 29.1 µM [falling, single point]"
O=C(O)CCc1ccc(-c2ccc(Br)cc2)o1,inactive: -21.5%,
O=C(OCc1ccccc1)N1CCC2CC1c1c(-c3ccc(C(F)(F)F)cc3)cccc12 (stereo not drawn),,"inconclusive: 29.1 µM [activator, single point]"
COc1ccc(CNC(=O)c2cc(-c3cccs3)nc3ccccc23)c(OC)c1,inactive: 20%,
COC(=O)[C@@]12OC[C@]34[C@H]([C@@H](O)[C@@H]1O)[C@@]1(C)C(=O)C(O[C@@H]5OC(CO)[C@@H](O)[C@@H](O)[C@@H]5O)=C[C@@H](C)[C@@H]1C[C@H]3OC(=O)[C@H](OC(=O)/C=C(\C)C(C)(C)OC(C)=O)[C@@H]24 (stereo partly drawn),,active: 2.91 µM
COc1ccc(C(=O)COC(=O)C(CCSC)NS(=O)(=O)c2ccc(Cl)cc2)cc1 (stereo not drawn),,"inconclusive: 25.9 µM [falling, single point]"

# In the list so far, 2 have a COOH group:
Structure (SMILES),"activity change, negative = inhibition",Potency
O=C(O)c1[nH]c2ccccc2c1C(c1cc(Br)ccc1O)c1c(C(=O)O)[nH]c2ccccc12,inactive: -4.5%,
O=C(O)CCc1ccc(-c2ccc(Br)cc2)o1,inactive: -21.5%,

# Copied from above (3 entries):
Structure (SMILES),"activity change, negative = inhibition",Potency
O=C(CSc1oc(-c2ccccc2)nc1S(=O)(=O)c1ccc(Br)cc1)NC1CCCCC1,,"inconclusive: 6.51 µM [falling, single point]"
CC(C)(C)NC(=O)CN(C(=O)C1(C)CC(=O)N=C2C=CC=CN21)C1CCCC1 (stereo not drawn),inactive: -16.7%,
CCOc1nc(NC(=O)NS(=O)(=O)Oc2cccc(F)c2)nc(-c2ccccc2)n1,inactive: 21.2%,
